Reference: patent publication US5538834A, “Blocked photographically useful compounds for use with peroxide-containing processes” (Eastman Kodak Company, priority 1994, dated 1996)

What was measured:
[1] = Image dye formation activity (sensitometry) of blocked developing agents (Examples 3-5); details: activator with 0.6% hydrogen peroxide, pH 11, 77° F, 90 sec, strips incubated 1 week at 100° F, 50% relative humidity
[2] = Image formation with activator solutions with and without hydrogen peroxide, no incubation (Examples 6-9)
[3] = activator +H2O2, pH 11, without incubation
[4] = activator -H2O2, pH 11, without incubation

SMILES	Dmax - Dmin [1]	Dmax - Dmin [2, 3]	Dmax - Dmin [2, 4]
CCN(CCNS(C)(=O)=O)c1ccc(NC(=O)OCc2ccc(OC(=O)C(C)(C)C)c(NS(C)(=O)=O)c2)c(C)c1 [compound 1]	0.82	0.62	0.28
CCN(CCNS(C)(=O)=O)c1ccc(NC(=O)OCc2ccc(OC(=O)C(C)C)c(NC(=O)CCCC(=O)O)c2)c(C)c1 [compound 3]	1.10		
CCC(=O)Oc1ccc(COC(=O)Nc2ccc(N(CC)CCNS(C)(=O)=O)cc2C)cc1NC(=O)c1ccc(NS(C)(=O)=O)cc1 [compound 6]	0.22	0.15	0.00
